# Percent effect of library compounds

Data taken from ChEMBL document CHEMBL3988442, “University of Dundee, Small-Polar-MMV Screening Library” (2021).

Mtb cholesterol medium: 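Whole-cell growth test on Mycobacterium tuberculosis, read after 4 days in a medium based on cholesterol and the lipid DPPC; the read-out is not stated. Compounds at 50 µM. Direction is inferred from retests: higher values go with more growth inhibition. Of about 69,000 compounds tested this way, about 370 (0.54%) reached 50% or more in at least one test.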
Mtb glucose medium: 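Phenotypic screen: M. tuberculosis growth, glucose 7H9 medium, 3 days; the read-out is not stated. Compounds at 50 µM. Direction is inferred from retests: higher values go with more growth inhibition. About 69,000 compounds were tested under these conditions; 1.1% (about 760) showed 50% or more at least once.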

Each number is a percent effect as filed.
How 0% and 100% were set is not recorded. Most values in the screen are low, and negative values occur.
Compounds were drawn at random from those tested, without regard to their results.
Two or more numbers in one place are separate tests of the same structure; such repeats can differ widely.

compound,Mtb cholesterol medium,Mtb glucose medium
O=C(CCc1ccncc1)N1CCCC(N2CCNC2=O)C1 (centres undefined),21.05,7.305
COCCn1c(C(=O)NC(C(N)=O)C(C)C)cc2ccccc21 (centres undefined),-4.471,-31.46
Cc1nccn1-c1cc(CNC(=O)CCS(=O)(=O)C2CCCC2)ccn1,-30.36,3.859
COc1ccc(C)cc1-c1[nH]c2ccccc2c1C(=O)O,6.623,10.62
Cc1nc(C2CCCN2CCc2ccccn2)no1 (centres undefined),-5.474,-23.67
[H][C@@]12CS(=O)(=O)C[C@]1([H])N(Cc1ccc(C(C)=O)cc1)CCN2CCOC,-3.866,-8.19
CCc1nnc2n1CCN(C(=O)c1cc3ccc(F)cc3nc1C)C2,-19.02,-41.67
Cc1nc(-c2cn(CCN)nn2)n(-c2ccc(C(F)(F)F)cc2)n1,-22.64,-17.82
Cc1noc(C)c1CNC(=O)N1CCC(Cc2cnn(C)c2)C1 (centres undefined),18.22,8.588
O=C(Cc1csc(Cc2ccccn2)n1)NCCCN1CCCC1=O,-66.17,-54.7
CCCOC(=O)NCCC1CN(c2cnn(C)c(=O)c2)CCO1 (centres undefined),-8.708 and -2.335,2.324
Cc1cc(C)n(C2CN(CC(=O)N(C)Cc3ccc(C)o3)C2)n1,0.2202,-5.444 and -2.767
Cc1ncsc1C(=O)NCCNC(=O)c1cccs1,-9.077,9.785
O=C(O)C(F)(F)F.[H][C@]12CN(CCN(C)C)C(=O)[C@@]1([H])CN(c1ccccc1)C2,1.657,-23.32
O=C(CCSc1ccccc1)NCCn1nc2ccccn2c1=O,-1.265,14.36
Cc1noc(C(C)C)c1C(=O)NS(=O)(=O)c1ccc(Cl)cc1,1.133,-3.491 and 11.6
O=C(NCc1cnn(-c2ccc(F)cc2F)c1)C1CCCO1 (centres undefined),-4.52,17.35
CS(=O)(=O)NCc1ccc(C(=O)NCc2ccc3c(c2)CCC3)o1,13.1,21.74
CCOc1ccc(N(CCC#N)C(=O)c2ccc(SC)nc2)cc1,3.01,26.59 and 7.358
CCn1nc(C(C)C)cc1C(=O)N1CC(OCc2ccccc2F)C1,7.961,15.68
CC(CN1CCOC1=O)NC(=O)c1cccc2cc[nH]c12 (centres undefined),18.97,49.44
Cc1cc(N(C)CCC(O)c2ccccc2)n2nccc2n1 (centres undefined),23.39,21.43
O=C(NC1CC(=O)N(Cc2cccc(F)c2)C1)c1ccncc1 (centres undefined),16.42,14.86
[H][C@]12CC[C@]([H])(CN(c3ncccn3)C1)N(C(=O)CSCCC)C2,1.978 and 12.43,23.4
[H][C@@]12C[C@H](C(=O)N3CCCCO3)CN(C(=O)C3CCOCC3)[C@]1([H])CCO2,6.147,-2.671
CCn1nc(C)c2nc(C(C)C)nc(NCCOC)c21,-2.32,5.06
CC(C)c1nnc2n1CCN(C(=O)Cc1csc(C(C)(C)C)n1)C2,-8.103,-19.02
[H][C@@]12COC[C@]1(COc1ccc(C#N)cn1)CN(Cc1cccc(C)n1)C2,20.51,30.29
COc1ccncc1NCc1cscn1,2.388 and 11.4,-21.67
CNC(=O)N(C)CC1(c2ccc(Br)cc2)CC1,3.455,39.63
Cn1nc2c(cc1=O)CN(Cc1coc(-c3ccc(F)cc3)n1)CC2,-22.48,-33.69
Cc1noc(C2CCN(C(=O)c3ccc(C(F)(F)F)nc3)CC2)n1,14.75,18.99
CN(C)CCNc1cc(-c2ncccc2C(F)(F)F)c2cc[nH]c2n1,1.895 and -8.755,12.21
Cc1cc(C(=O)N2CCS(=O)(=O)CC2)c(C)o1,0.9837,14.03
O=C(O)C(F)(F)F.[H][C@@]12C[C@@H](C(=O)NC)N(C)[C@]1([H])CN(C(=O)c1ccco1)C2,12.17,2.756
COCCN1CCc2ncc(CNc3cc(N(C)C)ncn3)n2CC1,5.262,5.395 and -1.583
COc1ccccc1N1CCN(C(=O)CCn2ccc(C)n2)CC1,-30.52,7.99
COc1ccc(C[C@H]2CN(c3cc(OC)ncn3)CC[C@@H]2OC)cc1.O=C(O)C(F)(F)F,4.167,26.59 and 31.79
Cc1nc(CNCC2COCc3c(-c4ccoc4)nnn3C2)cs1 (centres undefined),15.49,70.19
CN(C(=O)c1ccco1)C1CCC(NC(=O)OC(C)(C)C)CC1 (centres undefined),2.098,-4.166
CCCN(Cc1cccnc1)C(=O)C1CCN(Cc2ccco2)CC1,0.555 and -1.658,8.83 and -5.419
CN(Cc1ccccc1)C1(C(=O)NCC(N)=O)Cc2ccccc2C1,-20.93,2.715 and -20.03
O=C(O)C(F)(F)F.O=C([C@H]1CCCO1)N1CCCC2(COCCN(c3ccccc3)C2)C1 (some centres undefined),7.779,28.54
CN1CC(=O)N(c2cccnc2)CC12CCN(C(=O)c1cccnc1)C2.O=C(O)C(F)(F)F.O=C(O)C(F)(F)F (centres undefined),-14.77,-21.69
[H][C@@]12CCCO[C@]1([H])[C@H](Nc1ccccn1)CN(Cc1cccc(C)n1)C2,15.12,16.7
[H][C@]12CCCCN1CCC[C@@]2(O)CNCCCNc1cccnc1,-1.276,-6.293 and -1.3
COc1cc(N2CCCC(c3nccn3CCN(C)C)C2)nc(N)n1 (centres undefined),-0.6002,-8.155
CCOc1nnc(CNC2CCCN(c3ccc(C)nn3)C2)s1 (centres undefined),-0.6792,-17.23
O=C(C1CCOCC1)N1CCc2ncc(CN3CCCCC3)n2CC1,3.428 and -8.125,-17.23
Cc1cc(C(F)(F)F)nn1C(C)C(=O)NN1CCN(C)CC1 (centres undefined),-17.04,-26.03
CC(C)CNC(=O)c1cn(C)c(=O)c2ccccc12,-19.54,24.87 and 6.228
CCN(CC)C(=O)CCNC(=O)N1CCC(c2ccccc2)C1 (centres undefined),16.3,-1.492
CC(C)CC(N)C1=N/C(=C2\N=CN=N2)NO1 (centres undefined),-17.2,-45.32
CN(C)CCNCC1COCc2c(-c3ccnn3C)nnn2C1 (centres undefined),-15.8,-27.09
Nc1nc(Sc2cccs2)cc(N2CC[C@H](CO)[C@H](O)C2)n1,-43.34,33.49
CN(C)c1nc2ncc(Cl)cc2cc1C#N,-25.53,-35.55 and -3.821
CCCc1c(C2CCOC(C)(C)C2)nc(N)c(C#N)c1-c1cnn(C)c1 (centres undefined),-4.643 and 3.765,7.941
CC(NC(=O)c1cccnc1N(C)C)c1ccccc1Br (centres undefined),-6.312,-3.865
O=C(O)C(F)(F)F.O=S(=O)(C1CC1)N1CCC2(CCN(Cc3nccs3)CC2)CC1,13.38,-2.902 and -11.93

For reference, 4 entries once more:

Result for CN(Cc1ccccc1)C1(C(=O)NCC(N)=O)Cc2ccccc2C1 was Mtb cholesterol medium: -20.93%; Mtb glucose medium: 2.715% and -20.03%.
Result for [H][C@@]12CCCO[C@]1([H])[C@H](Nc1ccccn1)CN(Cc1cccc(C)n1)C2 was Mtb cholesterol medium: 15.12%; Mtb glucose medium: 16.7%.
Result for CCc1nnc2n1CCN(C(=O)c1cc3ccc(F)cc3nc1C)C2 was Mtb cholesterol medium: -19.02%; Mtb glucose medium: -41.67%.
Result for CCn1nc(C)c2nc(C(C)C)nc(NCCOC)c21 was Mtb cholesterol medium: -2.32%; Mtb glucose medium: 5.06%.